The list shows a part of the results.

Amino acid sequences for entries named in this document (tags omitted). A change or cut given only in a name is not applied to a line headed by its entry.
UniProt O15151: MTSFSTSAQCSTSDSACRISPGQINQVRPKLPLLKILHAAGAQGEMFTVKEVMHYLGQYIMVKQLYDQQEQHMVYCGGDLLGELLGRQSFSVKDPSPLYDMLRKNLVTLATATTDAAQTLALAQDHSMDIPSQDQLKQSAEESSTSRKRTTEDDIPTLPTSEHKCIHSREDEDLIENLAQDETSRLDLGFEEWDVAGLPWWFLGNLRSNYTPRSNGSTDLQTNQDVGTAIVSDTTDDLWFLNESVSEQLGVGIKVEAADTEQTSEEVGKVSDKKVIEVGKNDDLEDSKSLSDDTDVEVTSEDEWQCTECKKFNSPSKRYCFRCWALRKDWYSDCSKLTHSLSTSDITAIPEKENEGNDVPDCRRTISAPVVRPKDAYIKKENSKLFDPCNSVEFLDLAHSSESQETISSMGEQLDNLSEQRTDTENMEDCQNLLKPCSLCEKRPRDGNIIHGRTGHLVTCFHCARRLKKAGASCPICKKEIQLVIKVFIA
UniProt Q9BTE3: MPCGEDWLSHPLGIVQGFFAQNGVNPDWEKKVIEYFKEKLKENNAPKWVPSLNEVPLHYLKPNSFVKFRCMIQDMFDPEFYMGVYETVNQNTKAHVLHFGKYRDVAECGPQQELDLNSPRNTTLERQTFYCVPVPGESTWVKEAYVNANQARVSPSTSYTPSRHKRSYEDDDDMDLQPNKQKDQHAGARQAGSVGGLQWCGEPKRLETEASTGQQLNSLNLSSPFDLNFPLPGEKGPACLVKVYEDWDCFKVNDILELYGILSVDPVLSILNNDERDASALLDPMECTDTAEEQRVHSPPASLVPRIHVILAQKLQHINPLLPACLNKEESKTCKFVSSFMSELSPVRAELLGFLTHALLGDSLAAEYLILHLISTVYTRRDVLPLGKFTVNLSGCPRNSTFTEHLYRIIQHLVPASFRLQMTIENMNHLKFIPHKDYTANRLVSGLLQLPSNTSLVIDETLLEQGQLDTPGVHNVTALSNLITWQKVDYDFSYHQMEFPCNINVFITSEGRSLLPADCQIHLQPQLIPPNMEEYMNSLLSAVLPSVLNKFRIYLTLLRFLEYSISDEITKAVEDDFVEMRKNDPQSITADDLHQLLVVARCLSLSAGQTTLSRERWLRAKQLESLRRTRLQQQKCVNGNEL
UniProt O00255, whole entry, looked up: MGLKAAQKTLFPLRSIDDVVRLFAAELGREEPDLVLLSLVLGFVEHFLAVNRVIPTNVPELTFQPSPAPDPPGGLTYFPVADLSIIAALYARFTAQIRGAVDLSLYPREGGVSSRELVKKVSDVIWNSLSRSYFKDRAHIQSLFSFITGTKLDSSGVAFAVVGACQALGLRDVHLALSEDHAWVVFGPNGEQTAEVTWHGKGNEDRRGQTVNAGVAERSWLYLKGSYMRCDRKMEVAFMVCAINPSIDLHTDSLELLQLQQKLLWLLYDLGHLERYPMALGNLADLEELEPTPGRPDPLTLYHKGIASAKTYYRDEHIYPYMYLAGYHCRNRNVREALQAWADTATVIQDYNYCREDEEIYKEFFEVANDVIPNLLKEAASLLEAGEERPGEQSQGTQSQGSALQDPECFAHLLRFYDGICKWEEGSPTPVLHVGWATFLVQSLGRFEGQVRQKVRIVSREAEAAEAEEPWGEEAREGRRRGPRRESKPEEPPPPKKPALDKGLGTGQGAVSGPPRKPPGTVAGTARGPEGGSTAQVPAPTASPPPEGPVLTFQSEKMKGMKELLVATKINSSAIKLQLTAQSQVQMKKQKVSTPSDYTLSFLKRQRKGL
UniProt Q8N6Q8: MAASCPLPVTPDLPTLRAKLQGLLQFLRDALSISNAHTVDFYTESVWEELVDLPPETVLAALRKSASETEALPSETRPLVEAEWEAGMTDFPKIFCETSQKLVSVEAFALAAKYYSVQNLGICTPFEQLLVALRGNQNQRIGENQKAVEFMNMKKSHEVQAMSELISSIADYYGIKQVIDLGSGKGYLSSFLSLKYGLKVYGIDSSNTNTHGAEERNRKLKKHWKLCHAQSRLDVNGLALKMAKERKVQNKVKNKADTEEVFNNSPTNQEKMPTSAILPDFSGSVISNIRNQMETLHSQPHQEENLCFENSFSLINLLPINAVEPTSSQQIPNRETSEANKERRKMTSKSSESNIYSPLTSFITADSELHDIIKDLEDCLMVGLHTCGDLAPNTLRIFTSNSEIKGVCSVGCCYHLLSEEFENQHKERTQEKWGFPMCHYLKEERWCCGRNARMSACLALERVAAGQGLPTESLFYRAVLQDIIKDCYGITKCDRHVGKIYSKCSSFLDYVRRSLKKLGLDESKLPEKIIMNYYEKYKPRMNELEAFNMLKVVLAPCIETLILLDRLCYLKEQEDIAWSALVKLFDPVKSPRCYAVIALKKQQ
UniProt O95243: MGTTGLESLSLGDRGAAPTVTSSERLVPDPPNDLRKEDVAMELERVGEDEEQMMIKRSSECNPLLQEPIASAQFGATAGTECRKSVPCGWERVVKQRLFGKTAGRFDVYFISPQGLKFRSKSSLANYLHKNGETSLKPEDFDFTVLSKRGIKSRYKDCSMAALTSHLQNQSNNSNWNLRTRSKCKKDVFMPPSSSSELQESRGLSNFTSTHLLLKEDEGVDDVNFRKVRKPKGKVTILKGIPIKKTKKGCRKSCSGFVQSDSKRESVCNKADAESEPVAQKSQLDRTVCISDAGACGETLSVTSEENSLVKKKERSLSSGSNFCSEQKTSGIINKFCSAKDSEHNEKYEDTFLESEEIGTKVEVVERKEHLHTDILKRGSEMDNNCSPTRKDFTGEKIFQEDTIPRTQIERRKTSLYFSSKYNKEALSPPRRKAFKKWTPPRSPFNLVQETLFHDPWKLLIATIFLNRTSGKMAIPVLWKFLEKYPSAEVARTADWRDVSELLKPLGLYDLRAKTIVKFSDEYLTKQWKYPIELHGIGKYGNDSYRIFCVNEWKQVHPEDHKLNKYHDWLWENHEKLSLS
UniProt O75586: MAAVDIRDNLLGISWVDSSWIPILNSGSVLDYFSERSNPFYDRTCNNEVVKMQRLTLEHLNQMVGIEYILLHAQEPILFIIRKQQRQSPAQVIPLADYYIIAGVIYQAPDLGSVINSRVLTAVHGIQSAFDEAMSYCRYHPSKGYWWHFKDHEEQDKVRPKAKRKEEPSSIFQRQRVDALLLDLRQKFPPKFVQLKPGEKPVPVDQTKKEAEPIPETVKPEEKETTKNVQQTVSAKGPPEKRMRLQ
UniProt Q8TCB7: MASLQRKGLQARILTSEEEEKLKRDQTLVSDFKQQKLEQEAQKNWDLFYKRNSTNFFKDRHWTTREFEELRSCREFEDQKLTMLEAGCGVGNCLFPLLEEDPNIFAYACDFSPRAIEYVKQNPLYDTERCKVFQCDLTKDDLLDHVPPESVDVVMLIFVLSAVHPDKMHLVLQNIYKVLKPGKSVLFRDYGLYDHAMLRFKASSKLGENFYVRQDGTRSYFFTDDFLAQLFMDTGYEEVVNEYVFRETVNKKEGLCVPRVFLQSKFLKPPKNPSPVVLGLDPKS
UniProt Q06413, whole entry, looked up: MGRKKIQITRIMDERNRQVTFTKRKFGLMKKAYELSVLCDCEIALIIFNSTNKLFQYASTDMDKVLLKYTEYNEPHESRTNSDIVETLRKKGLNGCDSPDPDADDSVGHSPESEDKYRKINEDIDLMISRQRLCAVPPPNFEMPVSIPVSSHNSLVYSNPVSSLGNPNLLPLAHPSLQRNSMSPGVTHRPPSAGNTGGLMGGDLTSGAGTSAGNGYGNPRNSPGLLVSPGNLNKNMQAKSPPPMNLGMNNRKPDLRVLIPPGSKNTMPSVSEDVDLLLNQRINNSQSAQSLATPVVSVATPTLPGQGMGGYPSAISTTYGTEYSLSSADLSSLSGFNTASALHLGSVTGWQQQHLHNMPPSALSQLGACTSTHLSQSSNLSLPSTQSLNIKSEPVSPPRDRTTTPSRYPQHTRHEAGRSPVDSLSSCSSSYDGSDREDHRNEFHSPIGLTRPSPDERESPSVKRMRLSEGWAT
UniProt A0JLT2: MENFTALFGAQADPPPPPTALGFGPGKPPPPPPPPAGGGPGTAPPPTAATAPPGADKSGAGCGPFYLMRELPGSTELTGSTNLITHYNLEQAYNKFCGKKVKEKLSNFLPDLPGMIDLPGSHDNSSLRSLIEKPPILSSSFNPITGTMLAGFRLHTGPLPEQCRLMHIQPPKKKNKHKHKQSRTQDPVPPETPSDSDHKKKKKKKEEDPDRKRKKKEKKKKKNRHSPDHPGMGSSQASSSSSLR
UniProt Q9H7H0: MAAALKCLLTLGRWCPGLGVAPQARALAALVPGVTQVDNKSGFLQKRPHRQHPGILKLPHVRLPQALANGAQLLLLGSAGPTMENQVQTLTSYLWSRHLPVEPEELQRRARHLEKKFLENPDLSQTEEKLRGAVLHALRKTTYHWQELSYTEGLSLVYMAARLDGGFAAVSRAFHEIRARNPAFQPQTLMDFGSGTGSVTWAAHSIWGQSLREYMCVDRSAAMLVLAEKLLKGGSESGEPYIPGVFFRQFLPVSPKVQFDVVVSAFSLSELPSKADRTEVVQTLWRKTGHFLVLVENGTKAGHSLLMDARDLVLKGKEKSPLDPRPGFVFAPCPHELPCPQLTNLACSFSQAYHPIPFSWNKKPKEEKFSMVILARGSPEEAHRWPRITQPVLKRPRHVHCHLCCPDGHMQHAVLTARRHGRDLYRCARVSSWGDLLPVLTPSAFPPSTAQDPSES
UniProt Q5SR56: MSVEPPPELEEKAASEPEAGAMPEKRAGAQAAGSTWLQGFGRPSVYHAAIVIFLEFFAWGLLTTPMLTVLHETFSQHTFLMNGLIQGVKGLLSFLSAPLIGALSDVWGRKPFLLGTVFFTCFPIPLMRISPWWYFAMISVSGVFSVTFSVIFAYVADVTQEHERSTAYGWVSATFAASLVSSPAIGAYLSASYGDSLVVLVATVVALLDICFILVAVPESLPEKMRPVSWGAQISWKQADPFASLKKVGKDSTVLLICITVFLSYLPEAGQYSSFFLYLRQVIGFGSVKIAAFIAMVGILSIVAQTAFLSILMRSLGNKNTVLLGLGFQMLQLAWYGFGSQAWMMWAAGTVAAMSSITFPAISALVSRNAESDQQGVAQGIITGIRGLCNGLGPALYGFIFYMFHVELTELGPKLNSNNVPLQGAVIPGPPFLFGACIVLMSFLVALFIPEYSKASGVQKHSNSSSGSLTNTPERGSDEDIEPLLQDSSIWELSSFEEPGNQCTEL
UniProt P50579: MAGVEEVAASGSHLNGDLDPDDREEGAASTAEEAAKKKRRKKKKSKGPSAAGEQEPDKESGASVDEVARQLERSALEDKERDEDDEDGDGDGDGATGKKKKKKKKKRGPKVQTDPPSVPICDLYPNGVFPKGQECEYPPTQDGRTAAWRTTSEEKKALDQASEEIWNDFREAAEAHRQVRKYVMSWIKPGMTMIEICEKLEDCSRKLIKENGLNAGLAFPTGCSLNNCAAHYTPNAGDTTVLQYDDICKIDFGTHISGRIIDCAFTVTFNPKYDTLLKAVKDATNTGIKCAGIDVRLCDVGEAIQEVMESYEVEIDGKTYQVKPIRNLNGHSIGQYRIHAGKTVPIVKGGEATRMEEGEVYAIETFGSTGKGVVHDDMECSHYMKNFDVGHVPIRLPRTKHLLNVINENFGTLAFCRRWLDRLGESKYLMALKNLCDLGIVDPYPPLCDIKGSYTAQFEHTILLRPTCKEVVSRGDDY
UniProt Q86XA0: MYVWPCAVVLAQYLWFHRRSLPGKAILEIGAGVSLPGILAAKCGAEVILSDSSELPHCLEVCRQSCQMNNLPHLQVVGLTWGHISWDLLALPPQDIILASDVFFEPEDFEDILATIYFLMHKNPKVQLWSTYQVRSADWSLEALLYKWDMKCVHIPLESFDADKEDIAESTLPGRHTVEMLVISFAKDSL
UniProt Q6ZNC8: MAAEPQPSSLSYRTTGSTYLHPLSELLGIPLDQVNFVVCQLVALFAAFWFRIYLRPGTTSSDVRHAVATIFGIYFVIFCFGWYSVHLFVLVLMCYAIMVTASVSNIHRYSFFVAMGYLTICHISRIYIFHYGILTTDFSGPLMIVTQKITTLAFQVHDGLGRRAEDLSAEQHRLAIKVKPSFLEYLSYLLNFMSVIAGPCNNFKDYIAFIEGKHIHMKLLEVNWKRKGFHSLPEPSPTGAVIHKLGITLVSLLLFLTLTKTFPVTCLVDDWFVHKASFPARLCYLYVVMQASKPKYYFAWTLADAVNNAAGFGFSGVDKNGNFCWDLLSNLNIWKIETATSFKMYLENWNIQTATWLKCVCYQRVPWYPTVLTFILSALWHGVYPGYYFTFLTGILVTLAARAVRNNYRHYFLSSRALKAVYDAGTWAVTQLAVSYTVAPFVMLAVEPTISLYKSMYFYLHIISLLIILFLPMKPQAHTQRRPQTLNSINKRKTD
UniProt P55083: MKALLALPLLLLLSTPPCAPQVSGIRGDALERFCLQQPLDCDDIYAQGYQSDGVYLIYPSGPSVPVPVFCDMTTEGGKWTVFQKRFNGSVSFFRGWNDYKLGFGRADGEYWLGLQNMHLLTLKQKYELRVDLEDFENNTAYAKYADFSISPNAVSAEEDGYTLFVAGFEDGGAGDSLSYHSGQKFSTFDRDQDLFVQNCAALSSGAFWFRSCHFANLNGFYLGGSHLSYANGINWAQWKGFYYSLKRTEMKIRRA

Compound in the first test: CNc1nc(-c2ccc3c(N)n[nH]c3c2)cc(N2C[C@@H](C(=O)NC3CCCCC3)CC[C@H]2C)n1
In words: log2 fold change, soluble protein after heating vs DMSO (PISA); higher = thermal stabilisation; K562 lysate, 10 uM; active = over 0.2 and 3.5 SD of the protein, either way, in both replicates (recomputed). A digest of the protocol:
(§1)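 To prepare the extract, K562 pellets were dounce-homogenised in PBS pH 7.4 with 1 mM MgCl2, giving crude material at 1 mg/mL protein. This was treated with 10 μM compound for 30 min, then heated in aliquots for 3 min over 48°C-58°C before pooling and addition of NP-40 to 0.5% at 4°C. Centrifugation at 21,000xg for 90 min left soluble protein in the supernatant, which TMTpro 16plex LC-MS/MS quantified with equalised channel sums. Results are log-two fold changes in thermal stability compared with solvent controls, from duplicates.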
MDM4 (UniProt O15151): the log2 fold change was inactive: 0.063.

On to MEIOB isoform 2 (UniProt Q8N635), for which the log2 fold change was inactive: 0.148.

For the target MCMBP isoform 2 (UniProt Q9BTE3), the log2 fold change is inactive: 0.199.

MCEMP1 (UniProt Q8IX19): the log2 fold change is inactive: -0.016.

Regarding MBD6 (UniProt Q96DN6), the log2 fold change was inactive: 0.044.

For the target MEN1 (UniProt O00255), the log2 fold change is inactive: 0.008.

Consider MFSD12 isoform 3 (UniProt Q6NUT3), for which the log2 fold change was inactive: -0.041.

Turning to MED11 (UniProt Q9P086), the log2 fold change is inactive: -0.243.

As to METTL2B (UniProt Q6P1Q9), the log2 fold change was inactive: -0.166.

Take MCTS2P, A0A3B3IRV3: the log2 fold change was inactive: 0.004.

Turning to METTL25 (UniProt Q8N6Q8), the log2 fold change was inactive: -0.021.

Consider MBD4 (UniProt O95243), for which the log2 fold change is inactive: -0.062.

As for MEX3A (UniProt A1L020), the log2 fold change is inactive: 0.037.

MED6 (UniProt O75586): the log2 fold change is inactive: 0.056.

Consider METTL6 (UniProt Q8TCB7), for which the log2 fold change is inactive: 0.122.

As to MFSD9 (UniProt Q8NBP5), the log2 fold change is inactive: 0.056.

With MFHAS1 (UniProt Q9Y4C4), the log2 fold change is inactive: 0.211.

On to MED9 (UniProt Q9NWA0), for which the log2 fold change is inactive: 0.087.

MEF2C isoform 2 (UniProt Q06413): the log2 fold change is inactive: 0.022.

For MED19 (UniProt A0JLT2), the log2 fold change was inactive: 0.161.

Compound in another test: COC(=O)N[C@@H](C)CNc1nccc(-c2cn(C(C)C)nc2-c2cc(Cl)cc(NS(C)(=O)=O)c2F)n1 [encorafenib]
Described as above. The essentials: as §1
For the target MDM4 (UniProt O15151), the log2 fold change was inactive: -0.263.

With MCMBP isoform 2 (UniProt Q9BTE3), the log2 fold change is inactive: -0.015.

Turning to METTL17 isoform 3 (UniProt Q9H7H0), the log2 fold change is inactive: -0.041.

Consider MBTPS2 (UniProt O43462), for which the log2 fold change is inactive: 0.144.

MELTF (UniProt P08582): the log2 fold change was inactive: 0.02.

For the target MEIS1 (UniProt O00470), the log2 fold change was inactive: 0.

On to MEN1 (UniProt O00255), for which the log2 fold change is inactive: -0.119.

Take MBLAC1 (UniProt A4D2B0): the log2 fold change was inactive: -0.024.

On to MFSD14B (UniProt Q5SR56), for which the log2 fold change was inactive: 0.029.

As to METAP2 isoform 2 (UniProt P50579), the log2 fold change is inactive: 0.024.

Consider METTL25 (UniProt Q8N6Q8), for which the log2 fold change is inactive: 0.083.

With MBD4 (UniProt O95243), the log2 fold change was inactive: 0.138.

Consider METTL23 (UniProt Q86XA0), for which the log2 fold change was inactive: -0.059.

MED6 (UniProt O75586): the log2 fold change was inactive: 0.045.

For METTL6 (UniProt Q8TCB7), the log2 fold change was inactive: -0.028.

With MBOAT1 (UniProt Q6ZNC8), the log2 fold change was inactive: 0.031.

Turning to MEF2C isoform 2 (UniProt Q06413), the log2 fold change is inactive: 0.056.

For MFAP4 isoform 2 (UniProt P55083), the log2 fold change was inactive: -0.015.

Compound in the next test: COC(=O)[C@H](CCSC)NC(=O)C1=C(C=C(C=C1)NC[C@H](CS)N)C2=CC=CC=C2
Described as above. The essentials: as §1
As for MDM4 (UniProt O15151), the log2 fold change was inactive: 0.204.

Turning to MCMBP isoform 2 (UniProt Q9BTE3), the log2 fold change was inactive: 0.124.

Take METTL17 isoform 3 (UniProt Q9H7H0): the log2 fold change is inactive: -0.108.

Take MBTPS2 (UniProt O43462): the log2 fold change is inactive: -0.007.

Turning to MELTF (UniProt P08582), the log2 fold change was inactive: 0.045.

MEIS1 (UniProt O00470): the log2 fold change is inactive: 0.029.

Take MEN1 (UniProt O00255): the log2 fold change was inactive: -0.033.

Take MBLAC1 (UniProt A4D2B0): the log2 fold change was inactive: 0.045.

Regarding MFSD14B (UniProt Q5SR56), the log2 fold change was inactive: -0.001.

As for METAP2 isoform 2 (UniProt P50579), the log2 fold change was inactive: -0.032.

As to METTL25 (UniProt Q8N6Q8), the log2 fold change was inactive: -0.03.

On to MBD4 (UniProt O95243), for which the log2 fold change was inactive: -0.034.

For METTL23 (UniProt Q86XA0), the log2 fold change is inactive: 0.034.

With MED6 (UniProt O75586), the log2 fold change was inactive: 0.136.

With METTL6 (UniProt Q8TCB7), the log2 fold change is inactive: -0.145.

On to MBOAT1 (UniProt Q6ZNC8), for which the log2 fold change was inactive: 0.164.

For MEF2C isoform 2 (UniProt Q06413), the log2 fold change was inactive: -0.023.

In the case of MFAP4 isoform 2 (UniProt P55083), the log2 fold change was inactive: 0.19.

Compound in a further test: COc1cc(Nc2ncc3c(n2)-c2ccc(Cl)cc2C(c2c(F)cccc2OC)=NC3)ccc1C(=O)O [alisertib]
Described as above. A digest of the protocol:
as §1
Regarding MEIOB isoform 2 (UniProt Q8N635), the log2 fold change was inactive: 0.007.

Take MCMBP isoform 2 (UniProt Q9BTE3): the log2 fold change was inactive: 0.067.

For the target METTL17 isoform 3 (UniProt Q9H7H0), the log2 fold change was inactive: 0.106.

For the target MEX3C (UniProt Q5U5Q3), the log2 fold change was inactive: 0.07.

On to MEN1 (UniProt O00255), for which the log2 fold change is inactive: -0.364.

Regarding MFSD12 isoform 3 (UniProt Q6NUT3), the log2 fold change was inactive: -0.084.

MFSD14B (UniProt Q5SR56): the log2 fold change is inactive: 0.09.

Regarding MATK isoform 2 (UniProt P42679), the log2 fold change is inactive: 0.029.

In the case of METAP2 isoform 2 (UniProt P50579), the log2 fold change was inactive: 0.066.

For the target MBD4 (UniProt O95243), the log2 fold change was inactive: -0.019.

For the target MEX3A (UniProt A1L020), the log2 fold change was inactive: -0.097.

For the target METTL23 (UniProt Q86XA0), the log2 fold change was inactive: -0.132.

Regarding MED9 (UniProt Q9NWA0), the log2 fold change is inactive: 0.122.

In the case of MED24 (UniProt F5H5K2), the log2 fold change is inactive: -0.02.

As for MBOAT1 (UniProt Q6ZNC8), the log2 fold change is inactive: -0.049.

For MEF2C isoform 2 (UniProt Q06413), the log2 fold change was inactive: -0.043.

In the case of METTL15 (UniProt A6NJ78), the log2 fold change was inactive: 0.233.

The values are drawn from the supplement of paper PMC10849652.
